PubChem BioAssay AID1259254 – NCATS, 2017
Screen: 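Gene knock-downs that lead to re-replication, shown by excess G2 DNA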 (primary screen). System: human HCT116 colorectal cancer cells. Knock-down reagent: single siRNA against human genes. Time to read-out: 3 days. Measured: 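Nuclei stained with Hoechst and imaged; cell-cycle phase assigned by DNA content; G2 share scaled per plate, non-targeting siRNA 0%, GMNN siRNA 100%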. Direction: G2 robust z-score: higher = more G2 cells, more excess DNA replication. Active means: 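An siRNA counts as active if its G2 robust z-score lies at least 5 MADs above the screen median; here such calls match roughly 38% of GMNN control or more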.
The deposit covers about 59,000 reagents; this is an unselected part. In the full data, about 1,550 (2.6%) got an active call. 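G2 share is only a proxy for re-replication; each gene was hit by three separate siRNAs, and active genes were retested.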 A number with no mark means an inactive call. The numbers tell different reagents against one gene apart. Not all columns of the deposit are shown. Reagent sequences are not shown. Not stated in the record: the amount of reagent.

G2 robust z-score | gene knocked down | reagent
-1.33 | TMEM222 | 1
-0.908 | TMEM222 | 2
-0.164 | TMEM222 | 3
-1.3 | SNAPC4 | 1
-1.01 | SNAPC4 | 2
0.729 | SNAPC4 | 3
-0.664 | TDRD10 | 1
0.625 | TDRD10 | 2
3.51 | TDRD10 | 3
0.531 | REG1B | 1
-0.558 | REG1B | 2
0.0139 | REG1B | 3
1.38 | CDH7 | 1
-0.0214 | CDH7 | 2
-1.32 | CDH7 | 3
0.164 | EGR3 | 1
-0.567 | EGR3 | 2
-0.68 | EGR3 | 3
-0.287 | KIF19BP | 1
0.153 | KIF19BP | 2
-1.04 | KIF19BP | 3
4.12 | TMEM244 | 1
0.0434 | TMEM244 | 2
-0.103 | TMEM244 | 3

The list goes on (6 carried over from the part before).
G2 robust z-score | gene knocked down | reagent
-0.287 | KIF19BP | 1
0.153 | KIF19BP | 2
-1.04 | KIF19BP | 3
4.12 | TMEM244 | 1
0.0434 | TMEM244 | 2
-0.103 | TMEM244 | 3
-0.439 | ABCD2 | 1
-0.517 | ABCD2 | 2
0.913 | ABCD2 | 3
2.55 | ZCWPW2 | 1
-0.953 | ZCWPW2 | 2
0.592 | ZCWPW2 | 3
-0.181 | IRF9 | 1
-0.14 | IRF9 | 2
-0.875 | IRF9 | 3
-0.747 | ATP2B4 | 1
1.99 | ATP2B4 | 2
1.04 | ATP2B4 | 3
-0.765 | C1R | 1
0.505 | C1R | 2
2.08 | C1R | 3
-0.632 | TOGARAM2 | 1
-0.0445 | TOGARAM2 | 2
0.231 | TOGARAM2 | 3
3.16 | XPOT | 1
-0.828 | XPOT | 2
-0.136 | XPOT | 3
-0.124 | DPEP1 | 1
-1.19 | DPEP1 | 2
-0.878 | DPEP1 | 3
